The results in this text go back to patent US5428129 (dated 1995).

*: point of attachment. OPac = O=C(CO*)c1ccccc1; Boc = CC(C)(C)OC(=O)*; Bn = c1ccc(C*)cc1

A short description of the data set: general procedure: hybrid (solid and solution phase) peptide synthesis; p-methylbenzhydrylamine-polystyrene resin (0.42 mM NH2/g resin, 1% divinylbenzene, 100-200 mesh); WSC.HCl / HOBt.H2O. Particulars: coupling step, acetate (via TFA salt).

With Boc-S(Bn)NLS(Bn)-OPac, the step yield is on record as 85.3%.

Take Boc-S(Bn)NLS(Bn)T(Bn)-OPac: the step yield turned out to be 84.0%.
